From the supplement of paper PMC3334620
Whole data set: some 33,000 sequences, median “E-score (-0.5 to 0.5)” near -0.0014, cut for the highest 2% near 0.25. Some of the results follow.

The sequences below were run against T1, Cad1 (UniProt P24813) (assay: PBM E-score (8-mer binding enrichment) (E-score (-0.5 to 0.5)); higher = stronger / more preferred TF binding). Settings: protein concentration: 100 nM; construct: GST-full length.
T1 sequence: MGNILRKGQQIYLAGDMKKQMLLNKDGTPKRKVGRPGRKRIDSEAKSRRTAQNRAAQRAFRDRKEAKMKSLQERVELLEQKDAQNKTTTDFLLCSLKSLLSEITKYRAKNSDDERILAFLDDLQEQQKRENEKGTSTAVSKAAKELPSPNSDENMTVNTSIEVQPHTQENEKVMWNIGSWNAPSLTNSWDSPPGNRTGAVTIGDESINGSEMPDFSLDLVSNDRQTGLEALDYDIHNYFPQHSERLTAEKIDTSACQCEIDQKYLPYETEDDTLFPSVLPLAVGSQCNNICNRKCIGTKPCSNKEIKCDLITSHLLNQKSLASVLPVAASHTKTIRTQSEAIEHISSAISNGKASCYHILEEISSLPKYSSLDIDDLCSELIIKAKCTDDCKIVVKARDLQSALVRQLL
In short: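 PURExpress in vitro transcription/translation supplied GST-tagged yeast transcription factors, either full-length or DNA-binding domain. Applied at about 100-200 nM to universal all-10-mer Agilent arrays double-stranded by primer extension, the bound protein was detected with fluorescent anti-GST. E-scores, modified Wilcoxon-Mann-Whitney statistics, were given by the Universal PBM Analysis Suite to ungapped eight-base words pooled with their reverse complements after masliner normalisation.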

Sequence | PBM E-score
ATCCAAGC | -0.186
ATAGACTA | 0.0366
CCCACTAC | 0.0352
CCTCATCG | 0.0154
CGAATGCC | -0.242
CTTTAGTC | -0.162
ATGCCGCG | 0.202
GAGGTAGA | -0.2
GACTGGAC | -0.162
CTAGACTA | -0.11
CTAGGGGC | -0.174
CTTAAACA | 0.0833
GCCAGTAC | -0.205
CTGTCAGC | 0.118
CGCAACCC | 0.0754
ATCGAGGG | -0.0376
ACTACTGG | -0.15
GAGTACAC | -0.0711
CTAGGTTA | -0.0925
CATAAACA | 0.194
ACAGGTCT | -0.0496
GTGGAAAC | -0.0721
AAATTGAG | 0.0345
ATTAGCGG | 0.125
CGTTTAGC | 0.078

Sequence | PBM E-score
AACCCTTG | -0.176
ATCAGGCG | 0.073
ATAACCGC | 0.0583
AGCTAATA | 0.168
CATCGGAA | 0.167
AATGCACA | 0.0747
TAGTCGCA | -0.105
ACTGTCCC | 0.00841
AAGAGGGC | -0.144
CGAATGCG | 0.246
TAATAAAA | 0.226
GCCAAAAC | 0.0771
CACACCCG | 0.00724
CTCAGCCA | -0.0335
AACGCTAT | 0.0175
ACGATCCT | -0.042
CTGATTTC | 0.182
CAGGGCCA | -0.169
CCTGGAAC | -0.0243
GGGTGCAC | -0.0791
CCAGATCA | 0.0357
GTCTCTCA | 0.0686
ATAATACC | 0.215
CGTCCGCC | -0.138
GATGCGGA | -0.0714

Sequence | PBM E-score
CCTGGCCA | -0.0345
ATCGTCGA | 0.0771
GCTAGAAC | -0.191
AGGTCAAC | 0.00774
GGTAATGA | 0.177
GGGCTGCA | -0.00508
GGCTGTAC | -0.0764
ATCGACCC | 0.0801
AAGGATGG | -0.00477
AAATGTTA | 0.114
CAAATTAG | 0.0433
TACTGTGA | 0.0722
CTCGGGAC | -0.183
ACTGGGCG | -0.153
ACGGTGCA | -0.0033
CAAGTGCC | -0.137
ACGTTGTA | -0.0128
GGGACACC | -0.0353
AGCAATCC | -0.214
ACCGATAG | 0.107
TACAAAGA | 0.173
CCGGACCG | -0.0657
GCTTGAAC | 0.205
CATCAGAG | -0.0712
CCGGCGGA | 0.0466

Sequence | PBM E-score
CCAGGAAC | -0.144
ATGCGGGG | -0.222
CTCATTTA | 0.0251
CAATATTC | 0.0508
AACGGATT | 0.317
AGGTCCAA | -0.189
CAGGATAA | 0.247
AGCCAGAA | -0.0332
CCTCGGAG | -0.00151
TCAAGGCA | -0.116
GCAATGGC | -0.0363
AGACAGTC | -0.119
AACTGAAG | -0.00576
CATAGAAA | 0.207
GTTACGTA | 0.0792
ATGCAGGA | -0.133
GCTAGACC | -0.254
CAGCGACG | -0.0364
AGCGATCC | -0.107
GCTCTGGA | 0.121
AGCTCCCT | -0.271
CAGGCATG | 0.0348
AACGATGT | 0.171
CCACACAG | -0.013
GCCATATA | 0.0708

Sequence | PBM E-score
ATACATAA | 0.12
CGCAAGAC | 0.0828
GCGGGATA | 0.0173
AGGAGACG | -0.19
ACGGAGGG | -0.168
CCTGTACA | 0.0214
AGTTACCA | 0.122
AGCATGGC | 0.0378
CATGTGCA | -0.201
CTTAAGTA | 0.075
CCAATTCA | 0.24
GGTAAATA | 0.107
CGTGTTTC | -0.0153
TCGCCGAA | 0.178
TCCTCCGA | -0.131
ATATCAGA | 0.132
GTAGATAA | 0.251
ATTCTCTA | 0.0352
CCAGATGC | -0.0931
GACGCCCC | -0.242
ACACAAGT | 0.143
TAAGTCCA | 0.0496
CCAAAGAC | -0.059
AAGCGTAG | -0.155
AATGAGAT | 0.0953

Sequence | PBM E-score
ATCGCCAG | 0.0235
ATAACCAG | 0.15
ACTTGGTG | -0.182
ACAGCGTG | 0.112
CCGGTGTC | -0.116
AGAGAACT | -0.0216
CAAGTCGA | 0.0166
AGCCCGAA | -0.0963
CGCACGAA | 0.071
GACTTCAA | -0.182
ACTCGGAT | 0.0302
GGTTTATA | -0.0482
GATCGTCA | 0.0147
AAGAGCAG | -0.174
ACCACTGC | -0.154
CCCCGCGG | -0.0748
AGGACGCA | 0.101
GGTCGCTA | -0.112
AAGCTATG | -0.0137
TCGCTCCA | -0.0792
GCACAACA | -0.00434
CAACCAGG | -0.13
ATCTACGA | -0.142
AAGTTATG | 0.138
GAAGTATC | 0.0455

Reprinted at random: 7 records from the list, in no set order.
Sequence | PBM E-score
AAGAGGGC | -0.144
AAGCTATG | -0.0137
GGTAATGA | 0.177
CCGGCGGA | 0.0466
CAACCAGG | -0.13
GCCAAAAC | 0.0771
CCAGATCA | 0.0357

As entered above:
For PBM E-score, ACAGCGTG has the entry 0.112
For PBM E-score, GATCGTCA has the entry 0.0147
For PBM E-score, CAACCAGG has the entry -0.13
For PBM E-score, GGTTTATA has the entry -0.0482
For PBM E-score, ACCACTGC has the entry -0.154
For PBM E-score, AGCCCGAA has the entry -0.0963
For PBM E-score, AGGACGCA has the entry 0.101

(next part)

Sequence | PBM E-score
ACTGGGAA | -0.0452
ACGTGAGT | -0.0277
TACGACCA | -0.0317
AGAGCACA | -0.0271
ACCTATAT | 0.249
CCGGTAGA | -0.053
AATCGCTC | -0.109
GCACGAGA | 0.0423
GCCGGTTA | -0.116
AGCTCCAG | -0.181
CCGCGATA | 0.11
CATTTTAA | 0.0999
CCATCGGC | 0.0261
CTCTTCAC | -0.149
AATAATCA | 0.218
CATCATGG | -0.0638
GCTTTTGA | -0.105
CAATTAGA | 0.011
CACGTGAC | -0.032
GGTAGACA | -0.079
ATCTCTTA | 0.035
CTGCTGCC | -0.125
